PubChem BioAssay AID1259314, Drosophila RNAi Screening Center | 2017
Purpose: 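Genes whose knock-down alters cell survival under toxic manganese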 (primary screen). Cell system: Drosophila S2R+ cells. Knock-down reagent: long dsRNA against Drosophila genes. Timing: 5 days (4 days knock-down, then 1 day metal exposure). Conditions: manganese chloride added to 15 mM for 24 hours. Detection: 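Luciferase ATP signal used as a proxy for viable cell number, reported as one averaged z-score per dsRNA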. Reading the numbers: mean ATP z-score: higher = more ATP than the plate average, more viable cells under manganese. Active means: 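Called active when the mean ATP z-score is above 1.5 or below -1.5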. Meaning of the calls: active = strong ATP change, up or down; inactive = no strong ATP change.
The whole screen tested about 3,100 reagents; below is a part drawn at random. 289 of all reagents (9.3%) count as active. 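Active includes both higher and lower ATP than plate average; check the z-score sign for direction.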 A number with no mark means an inactive call. Reagents against one gene are numbered here. Names joined by + are all predicted targets of the reagent. The record does not give: the amount of reagent.

Gene	reagent	mean ATP z-score
sit (stuck in traffic)	1	-0.307
sit (stuck in traffic)	2	0.371
CG12438	1	-0.258
sbm (sobremesa)	1	-0.495
Chs2 (Chitin synthase 2)	1	-1.31
Chs2 (Chitin synthase 2)	2	-0.694
Gr98c (Gustatory receptor 98c)	1	0.303
Gr98c (Gustatory receptor 98c)	2	-0.566
CG31213	1	0.238
CG31213	2	0.842
CG8468	1	0.0155
CG8468	2	1.36
CG6763	1	-1.04
CG6763	2	0.167
CG17821	1	-0.52
CG17821	2	2.84 (active)
CG1246	1	-0.0827
CG1246	2	1.3
Desat1 (Desaturase 1)	1	-3.51 (active)
Tapdelta (Translocon-associated protein delta)	1	-1.08
Tapdelta (Translocon-associated protein delta)	2	-0.724
CG8219	1	-0.148
CG8219	2	0.812
Gr93b (Gustatory receptor 93b)	1	-0.535
Gr93b (Gustatory receptor 93b)	2	-0.142
rasp	1	-0.685
rasp	2	-0.986
SK (small conductance calcium-activated potassium channel)	1	0.362
SK (small conductance calcium-activated potassium channel)	2	-0.147
SK (small conductance calcium-activated potassium channel)	3	0.145
SK (small conductance calcium-activated potassium channel)	4	2.5 (active)
Recs1	1	-0.143
Recs1	2	0.524
CG8785	1	1.25
TkR99D (Tachykinin-like receptor at 99D)	1	0.268
TkR99D (Tachykinin-like receptor at 99D)	2	0.419
CG9760	1	-1.13
CG9760	2	-0.726
CG12990	1	-0.218
Yip1d1 (Yip1 domain-containing 1)	1	0.316
Kr-h2 (Kruppel homolog 2)	1	1.65 (active)
Kr-h2 (Kruppel homolog 2)	2	0.135
zpg (zero population growth)	1	-0.742
zpg (zero population growth)	2	0.00792
Grl40a (Gustatory receptor-like 40a)	1	0.938
Grl40a (Gustatory receptor-like 40a)	2	-0.75
ZnT41F (Zinc transporter 41F)	1	0.216
Task6 (TWIK-related acid-sensitive K[+] channel 6)	1	0.241
Task6 (TWIK-related acid-sensitive K[+] channel 6)	2	1.7 (active)
hoe2 (hoepel2)	1	-0.155
hoe2 (hoepel2)	2	-0.204
Toll-4	1	-0.809
Toll-4	2	-0.439
Eglp3 (Entomoglyceroporin 3)	1	0.126
Eglp3 (Entomoglyceroporin 3)	2	0.864
Gli (Gliotactin)	1	-0.182
Gli (Gliotactin)	2	-0.307
Loxl1 (Lysyl oxidase-like 1)	1	0.21
CG14232	1	-1.1
CG14232	2	0.147
MFS18 (Major Facilitator Superfamily Transporter 18)	1	-0.199
MFS18 (Major Facilitator Superfamily Transporter 18)	2	-0.529
Appl (beta amyloid protein precursor-like)	1	1.11
Appl (beta amyloid protein precursor-like)	2	-1.3
CG1494	1	-0.559
Srg2 (Sting-regulated gene 2)	1	-0.627
Srg2 (Sting-regulated gene 2)	2	0.0814
Dh44-R1 (Diuretic hormone 44 receptor 1)	1	0.654
Dh44-R1 (Diuretic hormone 44 receptor 1)	2	-1.24
VGlut (Vesicular glutamate transporter)	1	-0.283
VGlut (Vesicular glutamate transporter)	2	-0.523
CG5805	1	-1.94 (active)
CG5805	2	-1.65 (active)
Ir41a (Ionotropic receptor 41a)	1	0.0319
Ir41a (Ionotropic receptor 41a)	2	-0.0432
Oct-TyrR (Octopamine-Tyramine receptor)	1	-1.88 (active)
Oct-TyrR (Octopamine-Tyramine receptor)	2	-0.536
mdy (midway)	1	0.524
mdy (midway)	2	0.54
CG32280	1	-0.565
CG32280	2	0.399
CG11147	1	1.4
MFS15 (Major Facilitator Superfamily Transporter 15)	1	0.123
MFS15 (Major Facilitator Superfamily Transporter 15)	2	3.23 (active)
CG5646	1	0.4
CG5646	2	0.48
PIG-M + CG42380 + CG42379 + 1 more	1	-0.155
PIG-M + CG42380 + CG42379 + 1 more	2	0.342
Or45a (Odorant receptor 45a)	1	-0.644
Or45a (Odorant receptor 45a)	2	-0.335
Tsp68C (Tetraspanin 68C)	1	-0.506
Tsp68C (Tetraspanin 68C)	2	-0.206
PGRP-SC1a (Peptidoglycan recognition protein SC1a)	1	-0.0731
CG3603	1	0.156
CG3603	2	0.627
Snmp1 (Sensory neuron membrane protein 1)	1	-0.295
CG9717	1	0.102
CG8323	1	-0.718
CG9743	1	0.507
CG9743	2	2.03 (active)
CG6660	1	-0.0913
Pen (Pendulin)	1	-0.25
Pen (Pendulin)	2	0.542
Vha100-2 (Vacuolar H[+] ATPase 100kD subunit 2)	1	1.02
Vha100-2 (Vacuolar H[+] ATPase 100kD subunit 2)	2	0.625
wtrw (water witch)	1	0.249
wtrw (water witch)	2	0.0986
Ir85a (Ionotropic receptor 85a)	1	-1.32
Ir85a (Ionotropic receptor 85a)	2	-0.963
Or35a (Odorant receptor 35a)	1	-0.0192
Or35a (Odorant receptor 35a)	2	-0.805
